# Experimental data published in PubChem BioAssay AID2685 (National Center for Advancing Translational Sciences (NCATS), 2010).
# The list shows a part of the results. These are further read-outs of the screen, such as a control signal, another cell line or another target. No call is given for them. Compounds called inactive in the main read-out are mostly missing here. The note in brackets gives the kind of curve behind each potency; many fits are weak.
# Assay: qHTS Assay for Lipid Storage Modulators in Drosophila S3 Cells;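 as to cell number change: cells counted by Cell Tracker Red CMTPX staining in the red channel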
# Conditions: BODIPY lipid droplet fluorescence, 18-24 h; for cell number change: measured here: cell count max response, cells fed with added oleic acid
# In short: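 Laser-scanning cytometry quantifies lipid droplet accumulation (500–530 nm total intensity; droplet/cell object ratio) in oleic acid-fed (400 uM added) Drosophila S3 cells treated with a concentration series. 20 uM Triacsin C defined 100% inhibition.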
# [1] = measured here: cell number channel AC50, cells fed with added oleic acid
# [2] = measured here: lipid fluorescence (Fed channel) AC50, cells fed with added oleic acid
smiles,measurement,setting,value
N#Cc1cccc(S(=O)(=O)NCc2nnc3ccccn23)c1,cell number change,,16%
same,AC50,[1],"0.82 µM [falling, full curve]"
same,AC50,[2],"0.731 µM [falling, full curve]"
CN(C(=O)CC1C(=O)NCCN1Cc1ccc2ccccc2c1)C1CCOCC1 (stereo not given),cell number change,,-13.5%
CCC1CC2(C)NC(=O)c3c(sc4c3CC(C)(C)OC4)N2C1=O (stereo not given),cell number change,,-1.53%
same,AC50,[2],"0.731 µM [falling, single point]"
CCN1CCN(c2nc3c(c(=O)[nH]c(=O)n3C)n2Cc2ccccc2F)CC1,cell number change,,19.6%
Cc1sc(NC(=O)c2ccco2)c(C(c2cccnc2)N2CCC(C)CC2)c1C (stereo not given),cell number change,,55.5%
same,AC50,[1],"0.366 µM [rising, full curve]"
same,AC50,[2],"0.291 µM [rising, full curve]"
COc1ccc(CCn2c(=N)c(C(=O)NC3CCCCC3)cc3c(=O)n4ccccc4nc32)cc1,cell number change,,1.42%
same,AC50,[2],"29.1 µM [rising, single point]"
COn1c2c(c3c4no[n+]([O-])c4ccc31)CCCC2,cell number change,,87.3%
same,AC50,[1],"6.51 µM [falling, single point]"
Cc1ccc(N2C(=O)CSC2c2cccs2)cc1 (stereo not given),cell number change,,-7.57%
same,AC50,[2],"2.31 µM [rising, full curve, poor fit]"
C[C@]12C(=O)N(c3ccc(F)cc3)C(=O)N1[C@@H]1c3ccccc3OC[C@@H]1[C@H]2c1ccccc1,cell number change,,3.89%
same,AC50,[2],"29.1 µM [rising, single point]"
CC(=O)N1CCOc2ccc(S(=O)(=O)Nc3cccc(C)c3)cc21,cell number change,,8.96%
CC(C)NC(=O)COC(=O)c1cc(Br)ccc1Cl,cell number change,,16%
same,AC50,[2],"5.8 µM [rising, full curve, poor fit]"
CC(C)(C)NS(=O)(=O)c1ccc(OCC(=O)NCC2CCCO2)cc1 (stereo not given),cell number change,,-8.03%
COc1cccc(NC(=O)c2cc([N+](=O)[O-])ccc2N2CCN(C)CC2)c1,cell number change,,-25.4%
same,AC50,[2],"29.1 µM [falling, single point]"
CC1CCCC(NC(=O)CN2C(=O)NC(c3ccccc3)(c3ccccc3)C2=O)C1C (stereo not given),cell number change,,53.9%
same,AC50,[1],"14.6 µM [rising, partial curve]"
CC1CC(C)(C)NC(=S)N1CCC(=O)NCCc1ccc(Cl)cc1 (stereo not given),cell number change,,108%
same,AC50,[1],"18.4 µM [rising, single point]"
O=C(c1ccccc1)c1c(O)nc(-c2ccccc2)n(-c2ccccc2)c1=O,cell number change,,-33.3%
same,AC50,[1],"29.1 µM [falling, single point]"
same,AC50,[2],"11.6 µM [rising, partial curve]"
N#Cc1ccc(OCC(=O)N2CCCC2=O)cc1,cell number change,,-6.49%
CS(=O)(=O)N1CCN(c2ccc([N+](=O)[O-])c(NCc3cccnc3)c2)CC1,AC50,[2],"29.1 µM [falling, partial curve]"
Cc1[nH]c2ccccc2c1C(=O)COC(=O)c1c(-c2c(F)cccc2Cl)noc1C,cell number change,,-20.7%
same,AC50,[2],"18.4 µM [falling, single point]"
c1ccc2nc(N3CCOCC3)cnc2c1,cell number change,,64.2%
same,AC50,[1],"13 µM [rising, partial curve]"
Brc1cccc(-c2nnc3sc(CN4CCCCC4)cn23)c1,cell number change,,24%
same,AC50,[2],"2.06 µM [rising, single point]"
COc1ccc(/C=C\C(=O)CC(O)(c2ccccc2)C(F)(F)F)cc1 (stereo not given),cell number change,,-16.4%
same,AC50,[2],"3.26 µM [rising, single point]"
O=C(c1noc2c1CCCC2)N1CCN(c2ccccc2)CC1,cell number change,,1.76%
same,AC50,[2],"29.1 µM [rising, single point]"
CN1CC[n+]2c(CN3C(=O)c4ccccc4C3=O)csc21,cell number change,,-13.3%
same,AC50,[2],"0.731 µM [falling, full curve]"
CC(=O)N1CCN(c2nc3ccc(Br)cc3s2)CC1,cell number change,,13.8%
same,AC50,[2],"1.03 µM [rising, full curve]"
C=CCOC(=O)C1=C(C)NC(SCC(=O)N(CC)CC)=C(C#N)C1c1ccco1 (stereo not given),cell number change,,299%
same,AC50,[1],"16.4 µM [rising, partial curve]"
same,AC50,[2],"5.17 µM [rising, partial curve]"
Cc1ccc(C)c(N2CCN(S(=O)(=O)c3ccc(-c4ccc(=O)[nH]n4)o3)CC2)c1,cell number change,,-14.5%
O=C(CCl)N(c1ccccc1)c1ccccc1,cell number change,,-27.3%
same,AC50,[2],"18.4 µM [falling, single point]"
CC(C)OC(=O)c1cc(Cl)c(=O)n(Cc2ccc(Cl)cc2Cl)c1,cell number change,,-8.38%
same,AC50,[2],"2.91 µM [rising, partial curve]"
Cn1c(/C(C#N)=C(\O)c2ccc([N+](=O)[O-])cc2)nc2ccccc21,cell number change,,8.8%
same,AC50,[2],"20.6 µM [falling, single point]"
COC(=O)c1cc(C(=O)N2CCN(c3ccccc3OC)CC2)cc([N+](=O)[O-])c1,cell number change,,8.14%
same,AC50,[2],"0.092 µM [falling, full curve, poor fit]"
CN(C)S(=O)(=O)N1CCN(C(=O)c2ccccc2)CC1,AC50,[2],"0.461 µM [falling, full curve]"
Nc1ccc2c3c(cccc13)C(=O)N(c1ccccc1)C2=O,cell number change,,-64.9%
same,AC50,[1],"20.6 µM [falling, single point]"
same,AC50,[2],"11.6 µM [falling, partial curve]"
Cc1ccc(SCCNC(=O)C(C)C)cc1,cell number change,,6.95%
same,AC50,[2],"3.66 µM [falling, full curve, poor fit]"
CCOC(=O)C1=C(CNCc2ccc(C)cc2)NC(=O)NC1c1cc(C)ccc1C (stereo not given),AC50,[2],"4.11 µM [rising, single point]"
CC1(C)CC(=O)c2sc(NC(=O)c3ccccc3)nc2C1,cell number change,,-4.46%
O=C(Cn1nc(-c2ccccc2)c2ccccc2c1=O)Nc1ccc2c(c1)nc1n2CCOC1,cell number change,,-25.7%
same,AC50,[2],"0.116 µM [rising, full curve, poor fit]"
Oc1ccccc1/C=N/n1cnn(Cc2ccccc2Cl)c1=S,cell number change,,4.16%
same,AC50,[1],"0.0231 µM [rising, full curve, poor fit]"
same,AC50,[2],"0.103 µM [rising, partial curve, poor fit]"
CN(C)S(=O)(=O)c1ccc(C(=O)N2CCOCC2)cc1,cell number change,,-31.2%
same,AC50,[1],"0.13 µM [falling, full curve, poor fit]"
same,AC50,[2],"0.116 µM [falling, full curve, poor fit]"
CN1/C(=C\C(=O)COC(=O)CN2C(=O)C3CC=CCC3C2=O)C(C)(C)c2ccccc21 (stereo not given),cell number change,,-29.5%
same,AC50,[2],"29.1 µM [falling, single point]"
COC(=O)C1=C(C)NC(C)=C(C(=O)OCCN(C)Cc2ccccc2)C1c1cccc([N+](=O)[O-])c1 (stereo not given),cell number change,,1.01%
same,AC50,[2],"5.8 µM [rising, partial curve]"
Cc1ccc(Nc2nc(Cl)c(C=O)s2)cc1,cell number change,,-1.85%
same,AC50,[2],"2.59 µM [rising, partial curve]"
COc1ccc(N2CCN(C(=O)c3ccc(Cl)c(S(=O)(=O)N4CCCC4)c3)CC2)cc1,AC50,[2],"4.61 µM [rising, partial curve]"
N#CCC(=O)N/N=C/c1cn(Cc2ccc3ccccc3c2)c2ccccc12,cell number change,,-43.3%
same,AC50,[1],"18.4 µM [falling, single point]"
same,AC50,[2],"20.6 µM [falling, single point]"
CCOC(=O)C1=C(C)Nc2ccccc2N=C1NC(=O)c1cc(C)on1,cell number change,,10.6%
same,AC50,[2],"9.2 µM [rising, partial curve, poor fit]"
COc1ccccc1C(OC(=O)c1ccco1)C(=O)NCc1ccc(F)cc1 (stereo not given),cell number change,,37%
COc1ccc(C(=O)NC2CCN(CC(=O)Nc3cccc(OC)c3)CC2)cc1,cell number change,,20.8%
same,AC50,[2],"29.1 µM [rising, single point]"
CC1CCCN(c2cc3c(cc2[N+](=O)[O-])C(=O)N(c2ccccc2)C3=O)C1 (stereo not given),cell number change,,-41.9%
same,AC50,[1],"36.6 µM [falling, partial curve, poor fit]"
O=C(NCc1nc2ccccc2[nH]1)c1cccc(S(=O)(=O)N2CCOCC2)c1,AC50,[2],"0.366 µM [rising, single point]"
CN(CC(=O)Nc1cc(S(=O)(=O)N2CCOCC2)ccc1Cl)C1CCS(=O)(=O)C1 (stereo not given),cell number change,,-7%
same,AC50,[1],"0.00461 µM [rising, full curve, poor fit]"
Cc1cccnc1NC(=S)NC(=O)/C=C/c1ccco1,cell number change,,40.8%
same,AC50,[1],"5.8 µM [rising, partial curve]"
CCNc1nc(NC(C)(C)C)nc(SCC(N)=O)n1,cell number change,,-26%
same,AC50,[1],"0.794 µM [falling, full curve, poor fit]"
same,AC50,[2],"5.01 µM [falling, full curve]"
CCOc1ccc(NC(=O)c2cccc3c2C(=O)N(CC2CCCO2)C3)cc1 (stereo not given),cell number change,,-7.2%
same,AC50,[2],"0.651 µM [rising, full curve]"
COc1ccc(S(=O)(=O)N2CCC(n3cnc4ccccc43)CC2)cc1,cell number change,,-9.4%
Cc1ccc(C(=O)O/N=C(\N)Cc2cccs2)cc1[N+](=O)[O-],cell number change,,41.1%
same,AC50,[1],"5.8 µM [rising, partial curve]"
CCOc1ccc(S(=O)(=O)NCc2cccnc2)cc1,cell number change,,53.2%
same,AC50,[1],"29.1 µM [rising, partial curve, poor fit]"
C/C(=N\NC(=O)c1cc([N+](=O)[O-])cc([N+](=O)[O-])c1)c1ccco1,cell number change,,-1.27%
same,AC50,[2],"29.1 µM [falling, single point]"
CCn1c(CCc2ccccc2)nnc1SCC(N)=O,AC50,[2],"6.51 µM [rising, single point]"
CCOC(=O)/C(C#N)=C/Nc1ccsc1C(C)=O,cell number change,,11.7%
same,AC50,[2],"0.00461 µM [rising, full curve, poor fit]"
CCCc1[nH]nc2c1C(c1ccc(O)cc1OCC)C(C#N)=C(N)O2 (stereo not given),cell number change,,-31.8%
same,AC50,[1],"9.2 µM [falling, partial curve, poor fit]"
same,AC50,[2],"18.4 µM [falling, partial curve]"

# Four entries picked at random from those above, as already listed:
smiles,measurement,setting,value
CC1CCCC(NC(=O)CN2C(=O)NC(c3ccccc3)(c3ccccc3)C2=O)C1C (stereo not given),cell number change,,53.9%
Cc1ccc(C(=O)O/N=C(\N)Cc2cccs2)cc1[N+](=O)[O-],cell number change,,41.1%
CC(C)(C)NS(=O)(=O)c1ccc(OCC(=O)NCC2CCCO2)cc1 (stereo not given),cell number change,,-8.03%
N#CCC(=O)N/N=C/c1cn(Cc2ccc3ccccc3c2)c2ccccc12,AC50,[2],"20.6 µM [falling, single point]"
